From the supplement of paper PMC8728848
The list shows a part of the results.

Target: Neu5Gc(b2-6)Gal(b1-4)GlcNAc
Test: glycan array binding signal (z-score within array); higher = stronger binding
Conditions: glycan notation: IUPAC condensed, linker removed
Outline: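 Negative Z-scores can be read as non-binding. The Z-score is calculated within each array and then averaged across arrays of one protein sequence at different concentrations or buffers and across linkers. Arrays, 3228 in all, were curated from the Consortium for Functional Glycomics database and kept only where the protein sequence was available.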

B1: Protein L(A-C2) (Finegoldia magna), Q51912 (protein)
chain: ADEPIDLEKLEEKRDKENVGNLPKFDNEVKDGSENPMAKYPDFDDEASTRFETENNEFEEKKVVSDNFFDQSEHPFVENKEETPETPETDSEEEVTIKANLIFANGSTQTAEFKGTFEKATSEAYAYADTLKKDNGEYTVDVADKGYTLNIKFAGKEKTPEEPKEEVTIKANLIYADGKTQTAEFKGTFEEATAEAYRYADALKKDNGEYTVDVADKGYTLNIKFAGKEKTPEEPKEEVTIKANLIYADGKTQTAEFKGTFEEATAEAYRYADLLAKENGKYTVDVADKGYTLNIKFAGKEKTPEEPKEEVTIKANLIYADGKTQTAEFKGTFAEATAEAYRYADLLAKENGKYTADLEDGGYTINIRFAGKKVDEKPEEKEQVTIKENIYFEDGTVQTATFKGTFAEATAEAYRYADLLSKEHGKYTADLEDGGYTINIRFAGKEEPEETPEKPEVQDGYASYEEAEAAAKEALKNDDVNKSYTIRQGADGRYYYVLSPVEAEEEKPEAQNGYATYEEAEAAAKKALENDPINKSYSIRQGADGRYYYVLSPVEAE
- glycan array binding signal (z-score): -0.275
